{"sequences": {"note": "Sequences of proteins named here, by UniProt entry; tags and fusion partners are left off.", "UniProt P63279": "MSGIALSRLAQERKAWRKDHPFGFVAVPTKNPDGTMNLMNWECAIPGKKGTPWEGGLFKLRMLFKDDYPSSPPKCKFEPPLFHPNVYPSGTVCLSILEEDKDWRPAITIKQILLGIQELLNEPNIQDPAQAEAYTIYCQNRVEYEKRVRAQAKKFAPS"}, "source": "paper PMC3146489", "binders": {"B1": {"name": "recombinant His-tagged N-terminal(1-191) fragment of PR-Set7 (domain or fragment, UniProt Q9NQR1-2 1-191)", "chain": "MARGRKMSKPRAVEAAAAAAAVAATAPGPEMVERRGPGRPRTDGENVFTGQSKIYSYMSPNKCSGMRFPLQEENSVTHHEVKCQGKPLAGIYRKREEKRNAGNAVRSAMKSEEQKIKDARKGPLVPFPNQKSEAAEPPKTPPSSCDSTNAAIAKQALKKPIKGKQAPRKKAQGKTQQNRKLTDFYPVRRSS"}}, "molecular_target": "GST-tagged UBC9 (human) (UniProt P63279)", "experiment": "pull-down; purified His-tagged N- and C-terminal PR-Set7 fragments incubated with GST-UBC9 or GST alone, GST pull-down; Western with His and GST antibodies; both purified", "note": "Results are given in words; binding and its absence hold for the method and conditions named. Some results given as binding are weak or reduced against the parent protein; the word gives no strength. Where a sequence is shown, tags or fusion partners need not be part of it.", "data": [{"binder": "B1", "values": [{"measurement": "binding", "value": "binds"}]}]}
